Literature values in US20130312498A1, “CARDIOVASCULAR DISEASE RISK ASSESSMENT AND TREATMENT BY STEROL AND/OR STANOL MARKERS” (FOUNDATION FOR HEALTH IMPROVEMENT AND TECHNOLOGY, priority 2012, published 2013).

Test system: intestinal, biliary and plasma phytosterol levels
Conditions: 80 mg dose, statin monotherapy

In the case of CC(C)c1c(C(=O)Nc2ccccc2)c(-c2ccccc2)c(-c2ccc(F)cc2)n1CC[C@@H](O)C[C@@H](O)CC(=O)O [atorvastatin], the “increase of intestinal, biliary and plasma phytosterol levels (by up-regulating NPC1L1)” value is listed as “particularly potent undesirable offender”.
